# Results reported in publication PMC7819943, “Rice protein-binding microarrays: a tool to detect cis-acting elements near promoter regions in rice”.
# By UniProt entry, the sequences of proteins in these tests, tags left out.
# UniProt Q0JBA9, entry or part of it: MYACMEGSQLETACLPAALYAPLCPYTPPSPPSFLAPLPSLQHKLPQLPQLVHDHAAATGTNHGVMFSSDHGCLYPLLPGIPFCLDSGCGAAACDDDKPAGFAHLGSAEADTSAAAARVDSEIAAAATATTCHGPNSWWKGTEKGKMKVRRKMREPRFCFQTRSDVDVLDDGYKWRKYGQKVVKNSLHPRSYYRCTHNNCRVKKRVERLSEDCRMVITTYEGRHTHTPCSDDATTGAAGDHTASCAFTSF
# This is one part of the list.
# Target: OsWRKY34 (Oryza sativa, UniProt Q0JBA9 1-250)
# Experiment: protein-binding microarray (RPBM); PBS, 2% BSA, 51.3 ng/ul salmon testes DNA, 50 uM zinc acetate, 200 nM TF, 25 C, 1 h; high values mean tight binding
# Conditions: protein: recombinant; tags: N-terminal polyhistidine and DsRed monomer fusion (pET32a); label: CyDye5-dUTP incorporated in the synthesized complementary strand; 3' TTTTT single-stranded linker to array surface; dsDNA, one strand shown
# Summary of the method: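 Transcription factors were each fused at the N-terminus to a polyhistidine tag plus DsRed and expressed in E. coli BL21-CodonPlus before Ni–NTA purification. Binding to a double-stranded custom Agilent array was carried out with 200 nM protein at 25 °C for 1 h in PBS, 2% BSA, salmon testes DNA and 50 µM zinc acetate. The binding signal is per-feature fluorescence intensity, in arbitrary units, on an Axon 4000B scanner.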
row,Sequence,binding signal
1,CTTTTTGACTGTGTAATTCCCTTGCTGTTTGTATAACATCCGGAGTCACCTAGTGCAG,9730 fluorescence intensity (a.u.)
2,CCTGCTATGATTTATGGACAAGATACATTGCGTTCTCACTCGGAGTCACCTAGTGCAG,9290 fluorescence intensity (a.u.)
3,ATGTTCTCCACGGAGCTGTCTGGTTCTGTTTGCTTCCTATCGGAGTCACCTAGTGCAG,9900 fluorescence intensity (a.u.)
4,GGTTTTTTTCCTGTGGTTCAATCAAACTGTTATTTCTGTACGGAGTCACCTAGTGCAG,9480 fluorescence intensity (a.u.)
5,TCTAATATGAGCTCTTTGTTGATACACATTATTCAGAGACCGGAGTCACCTAGTGCAG,8350 fluorescence intensity (a.u.)
6,TCTTCGTCGTCGTGGTTGGCGTCCTCGTGTCCGCCCGTTGCGGAGTCACCTAGTGCAG,12600 fluorescence intensity (a.u.)
7,GGAGAGCTCTGCTGCTTGGGGAGGGGAGGCGGAGGCGATGCGGAGTCACCTAGTGCAG,10600 fluorescence intensity (a.u.)
8,GGTGTTTGGTTTATGAGCAGGAGTGTGATTTGAGCTCTCACGGAGTCACCTAGTGCAG,8060 fluorescence intensity (a.u.)
9,AGTGGCAGGGGTGTGGGGATTGCCGGCTTGCCGCGGAGGACGGAGTCACCTAGTGCAG,11900 fluorescence intensity (a.u.)
10,ACCCCGTCGCCGCCGCCATCAATGAATCCAGACGCAAACGCGGAGTCACCTAGTGCAG,9160 fluorescence intensity (a.u.)
11,CATGCTCCACGTCCTTATGTCTCTCCAGTTTTACTGTATCCGGAGTCACCTAGTGCAG,9180 fluorescence intensity (a.u.)
12,TATTGATTATGGTGTCATGTCTAGCTGATGGATGACTAATCGGAGTCACCTAGTGCAG,8970 fluorescence intensity (a.u.)
13,CTATTCAAATCAGGCCCATTAATTTTGTCACTTTCTCTATCGGAGTCACCTAGTGCAG,9370 fluorescence intensity (a.u.)
14,ATTCCGTCCATTCCCCTCCTGCGTACTTCCGCCGCGCGGCCGGAGTCACCTAGTGCAG,8950 fluorescence intensity (a.u.)
15,TGGCGCCGTCGTTCGTCCTGTTGCTTCCGCCCGCATCCTGCGGAGTCACCTAGTGCAG,13600 fluorescence intensity (a.u.)
16,CTTCTCTCAAAGTACCCGCGGAATCTCATTCGCTATATTCCGGAGTCACCTAGTGCAG,8330 fluorescence intensity (a.u.)
17,CCGCCGCCGCCGCCGCCGCCGCGGCCGGATCCCACGCGCGCGGAGTCACCTAGTGCAG,8370 fluorescence intensity (a.u.)
18,CCGCTGCTCCACCGCTACGACGCACGCCATCACACGCGCGCGGAGTCACCTAGTGCAG,9830 fluorescence intensity (a.u.)
19,TTTCTTTTTCTTGGTTTTTTTTTGTCTTTTCTTCTTTTTCCGGAGTCACCTAGTGCAG,18200 fluorescence intensity (a.u.)
20,ATTTGTATTGTGGTCCTGTGGAGTTTGCACTGTGGAATTTCGGAGTCACCTAGTGCAG,9940 fluorescence intensity (a.u.)
21,TAGTTGAGGGGCAGAGGTTTATGGTTTTGCGTATTGGGGACGGAGTCACCTAGTGCAG,12500 fluorescence intensity (a.u.)

row,Sequence,binding signal
1,CTCTCGGTGCCTGTCTCCACTCATCTCCTCTCGTTCTCTCCGGAGTCACCTAGTGCAG,10400 fluorescence intensity (a.u.)
2,TATCCATACTTGCATCTAGTCTAGCATGGGCCCCGGCCCACGGAGTCACCTAGTGCAG,8440 fluorescence intensity (a.u.)
3,TTCCTCCAAATGCAACCTTTTCTGTCAATCATTGTATTTACGGAGTCACCTAGTGCAG,9060 fluorescence intensity (a.u.)
4,CTGATCCGCATTTTTACTCTGTTTATCCGCAAGAAAGTTTCGGAGTCACCTAGTGCAG,8290 fluorescence intensity (a.u.)
5,TACACCATCCATTTTCAGTCTACGCATCCAACCTCCAAACCGGAGTCACCTAGTGCAG,9830 fluorescence intensity (a.u.)
6,CACCACCATCGTATGCTTTTGCGCGTATTTCAGCTGGTGACGGAGTCACCTAGTGCAG,8150 fluorescence intensity (a.u.)
7,CATATTTTTCTTTTTCATACCATATTGAGTTTTGCAAGGGCGGAGTCACCTAGTGCAG,8120 fluorescence intensity (a.u.)
8,TGTTCATGTCTAACGTTTGACCGTTCGTCTTATTTGAAAACGGAGTCACCTAGTGCAG,9480 fluorescence intensity (a.u.)
9,CGCTTCTTTTATTTGGGCCGGGCAGTTTCTGGGCTAGACCCGGAGTCACCTAGTGCAG,8670 fluorescence intensity (a.u.)
10,CCTGCCACATCAGCATAAACCGCTTACAAAACCACCCGAGCGGAGTCACCTAGTGCAG,9050 fluorescence intensity (a.u.)
11,GACCGCCGCGCTCGTCACCCACACCGGCCGCCGAGCTCGCCGGAGTCACCTAGTGCAG,8590 fluorescence intensity (a.u.)
12,GAAAATATCTGAAAGATACCGTTTGTCGTACTCCTTTTCTCGGAGTCACCTAGTGCAG,9000 fluorescence intensity (a.u.)
13,ACGACATCTACATGAATGTTTTAGCTTCTTTCCTTAGTTTCGGAGTCACCTAGTGCAG,12900 fluorescence intensity (a.u.)
14,GGCTGAGGGAGGTAATTTAGTTAGCAACAAGAGATAAGGGCGGAGTCACCTAGTGCAG,9380 fluorescence intensity (a.u.)
15,CCATGTGATTTGTTCCTTGGCTCTTCCACTCTCTAGCTCCCGGAGTCACCTAGTGCAG,10200 fluorescence intensity (a.u.)
16,GTCGGTTATATGTCTGTATCATGATGTAATTTTTTTACTGCGGAGTCACCTAGTGCAG,9180 fluorescence intensity (a.u.)
17,GATAATTCGTCGTTCGTTTTGTGCATCCATCCAGAATTCGCGGAGTCACCTAGTGCAG,8990 fluorescence intensity (a.u.)
18,CCCAAGTGGATAGCGAATTCTTTTTCTCTCGTTCACATTCCGGAGTCACCTAGTGCAG,11800 fluorescence intensity (a.u.)
19,GCGCCACACCCACCGGCAGCTCCTCCTCGCACCGAGGTTGCGGAGTCACCTAGTGCAG,8210 fluorescence intensity (a.u.)
20,CATTTATTAATAGTGCGAAATTGAACCGAGTCTTTTTTTCCGGAGTCACCTAGTGCAG,8160 fluorescence intensity (a.u.)
21,GAGGAGGATTTGTCCTGGTTTGGTGGTGGTGGGGAGCGGCCGGAGTCACCTAGTGCAG,15200 fluorescence intensity (a.u.)

row,Sequence,binding signal
1,CCCCGTCTTCTCATCACCAGCTCAGCTGTGGCCGGCCGCGCGGAGTCACCTAGTGCAG,8780 fluorescence intensity (a.u.)
2,AGACTCTTTTGTTTCTGCCGTTCCAAATATTCCAACGTTTCGGAGTCACCTAGTGCAG,8480 fluorescence intensity (a.u.)
3,AATTAATTATAGGTCCTTTTTTGGCTCTGTTTACACGTATCGGAGTCACCTAGTGCAG,8460 fluorescence intensity (a.u.)
4,GTTGCCCTCTCCTTCCCGGCGCGGCCACTCCGTCCGCCGCCGGAGTCACCTAGTGCAG,10800 fluorescence intensity (a.u.)
5,AGACAGGAGTACATGACCAACCAATATTCTCAACCTTTTACGGAGTCACCTAGTGCAG,8060 fluorescence intensity (a.u.)
6,TCCAAGGACCTAATCGCAAAAAACACCGTAGCTGAAATAACGGAGTCACCTAGTGCAG,8030 fluorescence intensity (a.u.)
7,CTTTCTTTATTTCAAAAGTATGATACCGTTGACTTTTCACCGGAGTCACCTAGTGCAG,24900 fluorescence intensity (a.u.)
8,AAACCCACCCACCCAGCGCTTCTTCTTTCCTTTCTTTATTCGGAGTCACCTAGTGCAG,12900 fluorescence intensity (a.u.)
9,ACGCCCACACCCTCCTACTTATTGGCATCATTTTTCCTCTCGGAGTCACCTAGTGCAG,8750 fluorescence intensity (a.u.)
10,AGTTGTGCTCTTTTCTTAGCTTATTCATTCTTGTTGTATTCGGAGTCACCTAGTGCAG,9470 fluorescence intensity (a.u.)
11,AACGACGCCTAATCACCGTGTTTTGTTTCGTCTCGTAATCCGGAGTCACCTAGTGCAG,8460 fluorescence intensity (a.u.)
12,AATCCCTCGGGCGTCCCTTTGTACCTTTCTTTTTTCAAAACGGAGTCACCTAGTGCAG,11300 fluorescence intensity (a.u.)
13,GACATGAATCACGTTGACTGCACAATTTATTTCTTTGTTCCGGAGTCACCTAGTGCAG,10900 fluorescence intensity (a.u.)
14,GTGCAGCAATCATCTCGTCCACCTCACCTTACCCGAAACCCGGAGTCACCTAGTGCAG,8340 fluorescence intensity (a.u.)
15,CGTAATACTCCTTCCGTTTCATATTATATAAGTCGTTTGACGGAGTCACCTAGTGCAG,11500 fluorescence intensity (a.u.)
16,CTAGCTATATTACACGTTATTTTTTTTATTGTTATCATACCGGAGTCACCTAGTGCAG,9630 fluorescence intensity (a.u.)
17,AGCGTTACGCTTCACGGTTCACATTTTTTATATACTTCCTCGGAGTCACCTAGTGCAG,9050 fluorescence intensity (a.u.)
18,GGCCGTTTGATGCAGATCTCGCTTGGCAAAGCAAATCTCCCGGAGTCACCTAGTGCAG,9720 fluorescence intensity (a.u.)
19,TATCCACACCTCCACTTCATGTACATATATGGAATACCTACGGAGTCACCTAGTGCAG,9650 fluorescence intensity (a.u.)
20,GTCTTCTGTTCTCAATTATCAATTTTGCTATAGCTCACTCCGGAGTCACCTAGTGCAG,9180 fluorescence intensity (a.u.)
21,TTCTGGTCAGAATCATGTGTTTTTCCTATCCCTCCACTTTCGGAGTCACCTAGTGCAG,8710 fluorescence intensity (a.u.)

row,Sequence,binding signal
1,CTCTCTCTCTTCTTCGCTGGCTCGCGCAAATCGAGGCCTTCGGAGTCACCTAGTGCAG,8680 fluorescence intensity (a.u.)
2,GGTTCTCTGTTCTTGGCTGTTTTCTTCCAACCGTCTCATCCGGAGTCACCTAGTGCAG,16200 fluorescence intensity (a.u.)
3,GTATCCATTTCGTTTCCAATATCATACTACCTGTCTTCTACGGAGTCACCTAGTGCAG,10700 fluorescence intensity (a.u.)
4,GCAGCAGTATAAGCAGTAAGCACTCCACTCACTCACCAAACGGAGTCACCTAGTGCAG,9250 fluorescence intensity (a.u.)
5,GTTGCCACACCTCATGTTAGGCAAGTTTGACCAAATTAGTCGGAGTCACCTAGTGCAG,8680 fluorescence intensity (a.u.)
6,GTCACACTCCACTCCGTCCACCACCACCACCACCGCATCGCGGAGTCACCTAGTGCAG,9590 fluorescence intensity (a.u.)
7,TTTTAGCACATGTTGACCGTTCGTCTTATTCAAAAAATTTCGGAGTCACCTAGTGCAG,9160 fluorescence intensity (a.u.)
8,TTTGCTCTCGCTTGCATTTACACCATGATTACTCCTAATCCGGAGTCACCTAGTGCAG,8390 fluorescence intensity (a.u.)
9,TCCTTCCCACCTACTCTCTCCTACCACACACTTGTCTCTCCGGAGTCACCTAGTGCAG,9050 fluorescence intensity (a.u.)
10,ACTTGGTTGATCATGATTTTTATTTGGCGATGTCATCTCACGGAGTCACCTAGTGCAG,10600 fluorescence intensity (a.u.)
11,GTTATCGTCATTACGTCAATACGTGTTTTCGAAAATAATTCGGAGTCACCTAGTGCAG,8450 fluorescence intensity (a.u.)
12,TCTCTCTCTCTCTCTCTTTCTCTCTCTCGCCTCGCGAAACCGGAGTCACCTAGTGCAG,9900 fluorescence intensity (a.u.)
13,ATGTAGAAAATTTTAACAGCTATCTTTTTTTTTGGGCGGGCGGAGTCACCTAGTGCAG,11600 fluorescence intensity (a.u.)
14,GCCGGTCTCCTCCCCGCCACCGCCGCCGCCGCCGCCAATGCGGAGTCACCTAGTGCAG,8650 fluorescence intensity (a.u.)
15,GTATACATGTTTCAATTTTTTTCTGGTATATTTAGTTTTTCGGAGTCACCTAGTGCAG,8320 fluorescence intensity (a.u.)
16,CTAAGATACTCTTCCACTCTTCCTTGCTCCATCAGTATTACGGAGTCACCTAGTGCAG,8040 fluorescence intensity (a.u.)
17,CTCCGTCCTTACCTACCCGTGGAATCGGTCGTCGCTCATCCGGAGTCACCTAGTGCAG,14400 fluorescence intensity (a.u.)
18,CGATGCACCATATTCTTTATTTTTTCGCCCTTTACAGTCTCGGAGTCACCTAGTGCAG,11100 fluorescence intensity (a.u.)
19,TAAAATCGCATCCGTTGTTGCTTCATACCCATGTTCCCCACGGAGTCACCTAGTGCAG,9020 fluorescence intensity (a.u.)
20,CCATGGCGGGGTGTATTGTTGTTGTATTTGGGGTTCTGGTCGGAGTCACCTAGTGCAG,19200 fluorescence intensity (a.u.)
21,CCATTCTCCTTGAGCATATGTATCCCAATTGATTTGTAAACGGAGTCACCTAGTGCAG,9370 fluorescence intensity (a.u.)
